# Results deposited as PubChem BioAssay AID1259308 (NCATS, 2017)
# Assay: 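Genes whose loss raises luciferase production in HEK293 cells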 (primary screen)
# Cell system: human HEK293 embryonic kidney cells stably expressing firefly luciferase (HEK-CMV-Luc2-Hygro)
# Reagents: single siRNA against human genes, 0.8 pmol siRNA per well
# Duration: 72 h
# Measured: 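Luciferase light (ONE-Glo) measured on one replicate plate set and viability (CellTiter-Glo) on the other, scaled to a negative control siRNA, with robust z-scores and luciferase per cell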
# Reading the numbers: total luciferase, z-score and total luciferase, % of control: higher = more reporter protein produced; luciferase per cell, z-score: higher = more reporter output per viable cell; viable cells, % of control: higher = more viable cells
# Active means: 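Active when the median/MAD z-score for overall luciferase is greater than 3; a gene was taken forward for validation with new siRNAs if at least two of its three siRNAs passed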
# Meaning of the calls: active = raised luciferase; inactive = no rise
# In all, the deposit lists about 59,000 reagents; below is a random part of them. Over the whole deposit, about 1,510 (2.6%) got an active call. 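Calls use total luciferase alone and ignore viability, so some active siRNAs may act by altering cell number.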 Reagents against one gene are numbered here.
gene,reagent no.,"total luciferase, z-score","total luciferase, % of control","luciferase per cell, z-score","viable cells, % of control",Outcome
CARS2 (GeneID 79587),1,0.805,97.9,1.07,82.4,inactive
CARS2 (GeneID 79587),2,-0.196,78,-0.887,110,inactive
CARS2 (GeneID 79587),3,-2.01,41.9,-3.23,110,inactive
AQR (GeneID 9716),1,1.86,119,3.24,56.5,inactive
AQR (GeneID 9716),2,3,142,3.78,58.4,inactive
AQR (GeneID 9716),3,0.254,86.9,1.91,58.7,inactive
SUCO (GeneID 51430),1,-0.0568,80.8,-0.183,94.7,inactive
SUCO (GeneID 51430),2,2.15,125,1.82,86.2,inactive
SUCO (GeneID 51430),3,0.31,88,-0.262,105,inactive
ZNF688 (GeneID 146542),1,0.185,85.6,0.788,77.7,inactive
ZNF688 (GeneID 146542),2,0.755,96.9,1.37,75.5,inactive
ZNF688 (GeneID 146542),3,-0.362,74.7,0.421,74.7,inactive
JAZF1 (GeneID 221895),1,-0.353,74.9,-0.307,90.7,inactive
JAZF1 (GeneID 221895),2,0.991,102,0.269,106,inactive
JAZF1 (GeneID 221895),3,-1.11,59.8,-1.27,93.2,inactive
APBB2 (GeneID 323),1,0.168,85.2,0.275,88.6,inactive
APBB2 (GeneID 323),2,-0.0238,81.4,0.0381,90.1,inactive
APBB2 (GeneID 323),3,-1.62,49.7,-0.64,65.7,inactive
TMED2 (GeneID 10959),1,-0.811,65.7,-0.79,90.5,inactive
TMED2 (GeneID 10959),2,-0.308,75.8,0.0823,82.9,inactive
TMED2 (GeneID 10959),3,0.0943,83.8,-0.217,99.1,inactive
ESRRA (GeneID 2101),1,-1.54,51.3,-1.48,84.6,inactive
ESRRA (GeneID 2101),2,-0.597,70,-1.09,104,inactive
ESRRA (GeneID 2101),3,1.05,103,1.97,68.3,inactive

Part of the list above in another layout.
SUCO (GeneID 51430) #2: total luciferase, z-score = 2.15; total luciferase, % of control = 125; luciferase per cell, z-score = 1.82; viable cells, % of control = 86.2; Outcome = inactive
SUCO (GeneID 51430) #3: total luciferase, z-score = 0.31; total luciferase, % of control = 88; luciferase per cell, z-score = -0.262; viable cells, % of control = 105; Outcome = inactive
